Assay results taken from PubChem BioAssay AID504847 (National Center for Advancing Translational Sciences (NCATS), 2011).
Among all 400,000 compounds or so, about 3,700 (0.93%) were called active. The shares of active, inactive and inconclusive entries below differ from those in the screen. Calls follow the shape of the dose curve; as a rule, active = well fitted inhibition curve with a large enough effect; inconclusive = small, poorly fitted or top-dose-only effect, or another doubt; inactive = no such curve, though single readings can be large or run the other way. A potency beside an inconclusive call is a rough fit, not a confirmed value.

Amino acid sequences for entries named in this document (tags omitted). A change or cut given only in a name is not applied to a line headed by its entry.
UniProt P11473: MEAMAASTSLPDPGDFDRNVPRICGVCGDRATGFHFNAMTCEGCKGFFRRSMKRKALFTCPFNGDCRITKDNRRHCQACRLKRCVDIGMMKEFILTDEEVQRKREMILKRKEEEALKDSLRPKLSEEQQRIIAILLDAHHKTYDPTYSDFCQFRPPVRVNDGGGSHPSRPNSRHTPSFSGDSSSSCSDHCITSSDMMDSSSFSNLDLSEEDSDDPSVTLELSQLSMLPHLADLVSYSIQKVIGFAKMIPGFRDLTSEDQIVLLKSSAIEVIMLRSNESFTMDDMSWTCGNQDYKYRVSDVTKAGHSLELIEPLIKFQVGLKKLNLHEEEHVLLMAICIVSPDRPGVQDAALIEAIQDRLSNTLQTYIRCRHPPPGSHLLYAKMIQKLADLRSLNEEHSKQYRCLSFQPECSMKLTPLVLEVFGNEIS

Target: Vitamin D3 receptor (Homo sapiens) (UniProt P11473)
Assay: Inhibitors of the vitamin D receptor (VDR): qHTS
Conditions: VDR-SRC2-3 peptide fluorescence polarization, 2 h; max response, negative = inhibition: hits give low values
Summary of the method: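 Fluorescence polarization assay measuring small-molecule disruption of VDR binding to the coregulator peptide SRC2-3. Compounds were pin-transferred (23 nl) into the reagent mix and incubated 2 h at room temperature before reading.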
% is scaled to controls: 0 for no effect and ±100 for the full control effect; potency is read from the fitted curve at half-maximal effect.

Row | Compound | Potency | max response, negative = inhibition
1 | Clc1c(OCCCn2ccnc2)ccc2ccccc12 | inconclusive: 11.2 µM [inhibitor, partial curve, poor fit] | 
2 | Cc1ccc2c(COC(=O)CC3Sc4ccccc4NC3=O)cc(=O)oc2c1C (stereo not drawn) | inconclusive: 89.1 µM [inhibitor, partial curve, poor fit] | 
3 | CCOC(=O)Cc1cnc(NC(=O)CSc2nc(N)cc(=O)[nH]2)s1 | inconclusive: 28.2 µM [inhibitor, partial curve, poor fit] | 
4 | Cc1nc(N)sc1-c1csc(Nc2cccc(O)c2)n1 | inconclusive: 70.8 µM [inhibitor, partial curve] | 
5 | Nc1c(S(=O)(=O)O)cc(NC(=O)c2ccccc2)c2c1C(=O)c1ccccc1C2=O | inconclusive: 50.1 µM [inhibitor, partial curve, poor fit] | 
6 | CCOc1cccc(C(=O)c2ccc(O)c(O)c2O)c1 | inconclusive: 50.1 µM [inhibitor, partial curve, poor fit] | 
7 | Cc1ccc(CN2C(=O)C[C@@H](NS(=O)(=O)c3ccc4ccccc4c3)C/C=C\C2c2ccc(C)cc2)cc1 (stereo partly drawn) | inconclusive: 79.4 µM [inhibitor, single point] | 
8 | NC(=O)C1CCN(C(=O)Cc2ccc(-c3ccccc3)cc2)CC1 | inconclusive: 89.1 µM [inhibitor, single point] | 
9 | CCCCCCCCCCCCCCCC(=O)NC(C)C |  | inactive: 4.47%
10 | Cc1ccc(OCC(=O)c2ccc(Cl)s2)c([N+](=O)[O-])n1 | inconclusive: 35.5 µM [inhibitor, partial curve] | 
11 | Cc1scc(C(=O)N2CCN(c3ccc(Cl)cc3)CC2)c1C | inconclusive: 79.4 µM [inhibitor, single point] | 
12 | O=C(CCN1C(=O)/C(=C/c2ccc(F)cc2)SC1=S)NCCc1cnc[nH]1 | inconclusive: 22.4 µM [inhibitor, partial curve, poor fit] | 
13 | CCCCCOc1ccc(/C=C/C(=O)Nc2sc(C)c(C)c2C(=O)OCC)cc1OC | inconclusive: 56.2 µM [inhibitor, partial curve, poor fit] | 
14 | COc1ccc(-c2nn3c(C4CCCCC4)nnc3s2)cc1OC | inconclusive: 89.1 µM [inhibitor, single point] | 
15 | COc1ccc(CNc2ncnc3ccc(-c4ccc(N(C)C)cc4)cc23)c(OC)c1 | inconclusive: 44.7 µM [inhibitor, partial curve] | 
16 | CN1CCN(CC(=O)C23CC4CC(CC(C4)C2)C3)CC1 | inconclusive: 89.1 µM [inhibitor, single point] | 
17 | CCc1cccc(NC(=O)c2cc3c(=O)n(Cc4ccccc4)ccc3nc2C)c1 |  | inactive: 0.39%
18 | CCc1ccc(C(=O)COC(=O)CNC(=O)C2CCCCC2)cc1 | inconclusive: 1.78 µM [inhibitor, full curve, poor fit] | 
19 | COc1ccc(N2CC(C(=O)Nc3nnc(SCC(=O)NCC4CCCO4)s3)CC2=O)cc1 (stereo not drawn) | inconclusive: 79.4 µM [inhibitor, single point] | 
20 | O=C(N/N=C/c1cccnc1)c1ccccc1OCc1cccc(Br)c1 |  | inactive: -9.89%
21 | COc1ccccc1NC(=O)CSc1c2c(nc3ccccc13)CCC2 | inconclusive: 89.1 µM [inhibitor, partial curve, poor fit] | 
22 | O=C(Nc1ccc(N2CCCC2)cc1)c1cccc(-c2cc3ccccc3oc2=O)c1 | inconclusive: 63.1 µM [inhibitor, partial curve, poor fit] | 

3 entries picked at random from the list so far, as already listed:
Row | Compound | Potency | max response, negative = inhibition
14 | COc1ccc(-c2nn3c(C4CCCCC4)nnc3s2)cc1OC | inconclusive: 89.1 µM [inhibitor, single point] | 
18 | CCc1ccc(C(=O)COC(=O)CNC(=O)C2CCCCC2)cc1 | inconclusive: 1.78 µM [inhibitor, full curve, poor fit] | 
15 | COc1ccc(CNc2ncnc3ccc(-c4ccc(N(C)C)cc4)cc23)c(OC)c1 | inconclusive: 44.7 µM [inhibitor, partial curve] | 

(list continues)

Row | Compound | Potency | max response, negative = inhibition
23 | Cc1csc(NC(=O)CSc2nc3sc(C)c(C)c3c(=O)[nH]2)n1 | inconclusive: 39.8 µM [inhibitor, single point] | 
24 | CCOc1ccccc1N1CC(C(=O)Nc2cc(Cl)ccc2C)CC1=O (stereo not drawn) | inconclusive: 100 µM [inhibitor, single point] | 
25 | COc1cc(Cl)nn(-c2ccccc2)c1=O | inconclusive: 89.1 µM [inhibitor, single point] | 
26 | O=C(O)c1cnc(-c2ccccc2)nc1C(F)(F)F |  | inactive: -3.1%
27 | COc1cccc(-n2ccnc2SCC(=O)Nc2c(C)cc(C)cc2C)c1 |  | inactive: -6.22%
28 | COCCCN(C(=S)Nc1cc(Cl)cc(Cl)c1)C(C)c1ccccn1 (stereo not drawn) | inconclusive: 89.1 µM [inhibitor, single point] | 
29 | O=C(O)c1cccc(-c2ccc(/C=N/NC(=O)c3cccnc3)o2)c1 |  | inactive: 2.02%
30 | COc1ccccc1NC(=O)Oc1cccc(OC(=O)c2ccccc2)c1 |  | inactive: -5.39%
31 | CN(c1ccc(-c2csc(NC(=O)C3CC(=O)N(Cc4ccco4)C3)n2)cc1)S(C)(=O)=O (stereo not drawn) | inconclusive: 89.1 µM [inhibitor, single point] | 
32 | CN(C)c1ccc(N/C=C/C(=O)C(F)(F)F)cc1 | active: 25.1 µM | 
33 | CC(C)(C)Cc1nnc(NC(=O)CSc2ccccc2)s1 | active: 28.2 µM | 
34 | Oc1ccc(Oc2ccc(Oc3ccc(O)cc3)cc2)cc1 |  | inactive: -15.3%
35 | CN(C)C1=NCCN1CCCC1CCCCC1 | inconclusive: 100 µM [inhibitor, partial curve, poor fit] | 
36 | CCOC(=O)c1cc([N+](=O)[O-])cc([N+](=O)[O-])c1Sc1ncnc2nc[nH]c12 | active: 50.1 µM | 
37 | CCOC(=O)CSc1nnc(Cc2cc(=O)[nH]c(=O)[nH]2)n1-c1ccc(Cl)cc1 | inconclusive: 89.1 µM [inhibitor, partial curve, poor fit] | 
38 | Cc1ccc(Nc2nc3ccccc3s2)c(C)c1 | inconclusive: 100 µM [inhibitor, partial curve, poor fit] | 
39 | CCc1nn(C)c(N)c1C |  | inactive: 20.2%
40 | Cc1nn(-c2ccccc2)c(Cl)c1/C=C/C(=O)c1ccc(O)cc1 | inconclusive: 28.2 µM [inhibitor, full curve] | 
41 | CCOC(=O)C1(Cc2ccccc2)CCCN(Cc2ccncc2)C1 (stereo not drawn) | inconclusive: 89.1 µM [inhibitor, single point] | 
42 | O=C1c2ccccc2NC(c2cccc(O)c2)N1c1ccccc1 (stereo not drawn) |  | inactive: -15.4%
43 | COC(=O)C1=C[C@@H](C(=O)OC)[C@@H]2C3=C(C(=O)C2(C)C)[C@H](C)n2c(=O)n(-c4ccccc4)c(=O)n2[C@@H]3C1 | inconclusive: 100 µM [inhibitor, partial curve, poor fit] | 
